Protein sequences, listed by entry. Tags and fused reporters are not part of them. Lines headed by an entry give the natural chain unless they say otherwise; changes in a name come on top.
UniProt Q9JHF5: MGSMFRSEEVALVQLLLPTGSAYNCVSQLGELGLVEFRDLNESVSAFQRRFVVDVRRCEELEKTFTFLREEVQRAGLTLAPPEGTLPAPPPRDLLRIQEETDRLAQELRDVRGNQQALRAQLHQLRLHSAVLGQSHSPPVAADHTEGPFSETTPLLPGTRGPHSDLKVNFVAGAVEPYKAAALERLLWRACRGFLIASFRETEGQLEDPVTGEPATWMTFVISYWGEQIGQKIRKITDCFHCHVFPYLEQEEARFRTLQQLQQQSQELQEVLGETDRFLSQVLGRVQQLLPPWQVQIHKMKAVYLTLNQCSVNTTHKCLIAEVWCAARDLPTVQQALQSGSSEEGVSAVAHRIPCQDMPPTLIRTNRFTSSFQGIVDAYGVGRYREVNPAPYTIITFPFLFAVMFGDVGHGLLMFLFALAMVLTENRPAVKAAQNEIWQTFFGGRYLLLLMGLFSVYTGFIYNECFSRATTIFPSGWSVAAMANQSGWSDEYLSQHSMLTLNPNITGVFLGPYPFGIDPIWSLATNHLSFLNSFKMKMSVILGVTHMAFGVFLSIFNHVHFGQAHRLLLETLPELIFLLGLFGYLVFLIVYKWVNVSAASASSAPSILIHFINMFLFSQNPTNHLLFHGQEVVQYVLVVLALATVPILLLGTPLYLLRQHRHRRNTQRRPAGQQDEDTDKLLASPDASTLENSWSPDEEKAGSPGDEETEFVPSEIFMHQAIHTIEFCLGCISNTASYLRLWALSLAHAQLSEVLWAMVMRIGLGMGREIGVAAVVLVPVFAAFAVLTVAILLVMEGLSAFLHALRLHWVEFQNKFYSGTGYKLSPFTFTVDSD

In article PMC9120031:

Assays:
Test in all cases: co-IP; FLAG- and V5-tagged proteins co-expressed in HEK293T cells; lysed 48 h after transfection in IP buffer (1% Triton X-100, 10% glycerol, 50 mM Tris-HCl pH 7.4, 150 mM NaCl, 1 mM dithiothreitol, 1 mM EDTA); precipitated with anti-FLAG antibody; western blot with anti-V5 (or anti-A subunit) antibody
[1] = molecular target: FLAG-a3N deletion mutant 1-213 (UniProt Q9JHF5)
[2] = molecular target: FLAG-a3N deletion mutant 1-315 (UniProt Q9JHF5)
[3] = molecular target: FLAG-tagged a3N (amino-terminal half of a3, amino acids 1-386) (UniProt Q9JHF5)
[4] = molecular target: FLAG-tagged V-ATPase a3 subunit (full-length) (UniProt Q9JHF5)
[5] = molecular target: FLAG-a3N deletion mutant 1-134 (UniProt Q9JHF5)

- binding [1]: binds weakly
- binding [2]: binds
- binding [3]: binds
- binding [4]: binds
- binding [5]: binds
B1: V5-tagged Ccz1 (protein, UniProt Q8C1Y8 1-480)
chain: MAAAAAGPGAWAAQEKQFPPALLSFFIYNPRFGPREGEEENKILFYHPNEVEKNEKIRNVGLCEAIVQFTRTFSPSKPAKSLHTQKNRQFFNEPEENFWMVMVVRNPIIEKQSKDGKAVVEYQEEELLDKVYSSVLQQCYSMYKLFNGTFLKAMEDGGVKLLKERLEKFFHRYLQTLHLQSCDLLDIFGGISFFPLDKMTYLKIQSFINRMEESLSVVKYTAFLYNDQLIWSGLEQDDMRILYKYLTTSLFPRHIEPELAGRDSPVRAEMPGNLQHYGRFLTGPLNLNDPEAKCRFPKIFVNTDDTYEELHLIVYKAMSAAVCFMIDASTPLTLDFCRRLDSIVGPQLTVLASDICEQFNINKRISGSEKEPQFKFIYFNHMNLAEKSTIHMRKTPSVSLTSVHPDLMKILGDINSDFTRADEDEEIIVKAMSDYWVVGKKSDQRELYVILSQKNANLIEVNEEVKKLCATQFNNIFFLD

Results are given in words; binding and its absence hold for the method and conditions named. In cells and extracts the contact can be indirect. Binding can be weak; no strength is given. Sequences can lack the tags named with a protein.
